Drawing on the supplement of paper PMC5949888, this text covers growth estimate for 79 substances.

Most values lie at the floor of the assay. Slopes are relative: functional sequences can read slightly below zero.

The subject of this data set is Saccharomyces cerevisiae PS128 hsf1 delta, HSF1(1-493) fusion. Briefly: growth estimate (transactivation domain function in HSF1 fusion, heat-shock survival) (a.u. (slope of normalised read count over time)); higher = stronger growth at 37°C, i.e. more transactivation activity. The note with it: library: random library.
Turning to PGVPSKVLLHASVDVRPAAR, the growth estimate was under -0.25.
In the case of NLRT it was under -0.25; in that of TCGCTLHLGRTRKRSVHRAG, under -0.25.
Then DVTSPC, with under -0.25.
In the case of SKWARMIRGRSAWIPCQRIG it was under -0.25; in that of APGHAIRDSLYVDLLAKSDN, under -0.25.
On to VGQVDAF, for which the growth estimate is under -0.25.
Then RIPARRINAHRTDPLG, with under -0.25; and SESDSAF, with under -0.25.
As to ERGATWECEMDVSAPSKAYA, the growth estimate is under -0.25.
With PQVGLRVSHRVSSAGRRPCY, the growth estimate was under -0.25.
In the case of LLNKC it was under -0.25.
Then VWNRYDRFPYD, with -0.198; and PRPKHAVVS, with under -0.25; and VSGAFGLPPCVL, with under -0.25.
Then LIHQCFGCCVKPSYAWNASW, with under -0.25.
Turning to VCFLMGIGASDIAGPSFRIS, the growth estimate is under -0.25.
Then NSSG, with -0.245; and SSSDLR, with under -0.25.
For the substance KFERWWG, the growth estimate is under -0.25.
For SLPGSQFNNSSSIEVTHRV, the growth estimate is under -0.25.
As to AVILASWYPRTTMWKCP, the growth estimate was under -0.25.
In the case of KNHMRGMSTTVSGAQITSGS, the growth estimate was -0.246.
In the case of PQDRTTAFELQVWFFDLRNR it was under -0.25.
Then AYRVSMAAAKSDQVSE, with under -0.25; and VRNKAEIGPHQFKRLFRAWS, with -0.15.
Turning to RLVAALSCCCHVSVSRIA, the growth estimate is under -0.25.
For the substance PCQALPGRSMTVQLGCDPGS, the growth estimate is under -0.25.
Then PWKQ, with under -0.25.
On to GFVRFWYASACPILPFEVST, for which the growth estimate is under -0.25.
As to SQSRRGVDILTFALYKKVTP, the growth estimate was under -0.25.
For CDVCIPVSPAVSAGQAA, the growth estimate is under -0.25.
Take INLSLAVGQQTSQT: the growth estimate was under -0.25.
Consider GHGLI, for which the growth estimate was under -0.25.
Consider HLS, for which the growth estimate was under -0.25.
Then HAYTQGYPRVIGRAFVNKSQ, with under -0.25; and VERGDFRTDACNKFR, with under -0.25.
In the case of RDFSCRIIEGIPRSAIQFEL it was under -0.25.
In the case of TQRTSTFLPFRLGRYSSPAV it was under -0.25; in that of QYGMRCTREKDCE, under -0.25; in that of GAGANHRRLREPGGVRNGVY, under -0.25.
For QMLLEIAGSFPSPAASLWRL, the growth estimate is under -0.25.
FALRPRTKQWVRFVFRQLVE: the growth estimate is under -0.25.
Take LSESY: the growth estimate was under -0.25.
Consider ILVCKRGGVVKSRKLSSGPG, for which the growth estimate was under -0.25.
Then VNPVGPQDRSMDLGGSVCAR, with under -0.25.
In the case of HLDNSPYSCCADLHMPISPT it was under -0.25; in that of SCGSFKQGFPLRIPRPLLKL, under -0.25.
For the substance GPCWVLRFGVGRR, the growth estimate is under -0.25.
In the case of LRKSEVLGFGCLNSSGFFEL it was -0.125.
In the case of YRRRALKTEYEVPRTRTPGY it was -0.243; in that of ESECQRAAVESKIAFV, under -0.25.
Take RLARAVVSLVVCPNPGSTGL: the growth estimate is under -0.25.
Then WYHGKGL, with under -0.25; and IVYGGSVPGNCSALRVPSAA, with under -0.25.
Then SLGTLVNH, with under -0.25.
Then LGMSVEGSSDSSIECDLAVD, with under -0.25; and SGFNLS, with under -0.25.
For TRNGGP, the growth estimate was under -0.25.
For the substance AVCSPGTGVSRALGRLRSVR, the growth estimate is under -0.25.
For the substance DAGLRGSEPPGPH, the growth estimate was under -0.25.
In the case of GSILWPYAN, the growth estimate is under -0.25.
In the case of FDIDKIASACVGGVFVPSVR it was under -0.25.
Take CAHSSEVVDE: the growth estimate was under -0.25.
In the case of CIYLRPA, the growth estimate was under -0.25.
Then HNLW, with under -0.25.
Then QEVRLSCEWITWTLVCHFPR, with -0.25.
Consider RTQRVPEAFEGGAYCVPRAY, for which the growth estimate was under -0.25.
As for RIFTEASIKRWSACFRWWGH, the growth estimate is under -0.25.
Regarding LLSRRRRSRCDPNRLWAQLI, the growth estimate is under -0.25.
Then NNLEIIVFGSRLEKRPMA, with under -0.25.
In the case of VVDASQVDSGRFYVIYNGYG it was under -0.25.
Then YGVRRTDGERSGE, with under -0.25; and NVTTVGKGWRLNTGGFSGVA, with under -0.25; and IPAPRQS, with under -0.25.
In the case of SRGRQFTGSAGPARRQLSSQ, the growth estimate is under -0.25.
In the case of MTKLRSRRLGH, the growth estimate was under -0.25.
Turning to QQESPAIRFDVSIGRNELS, the growth estimate is under -0.25.
Turning to RRPWAPVYQSNYTKANMRLR, the growth estimate is under -0.25.
